Test results published in paper PMC8891019.

By UniProt entry, the sequences of proteins in these tests, tags left out.
UniProt Q13148, whole entry: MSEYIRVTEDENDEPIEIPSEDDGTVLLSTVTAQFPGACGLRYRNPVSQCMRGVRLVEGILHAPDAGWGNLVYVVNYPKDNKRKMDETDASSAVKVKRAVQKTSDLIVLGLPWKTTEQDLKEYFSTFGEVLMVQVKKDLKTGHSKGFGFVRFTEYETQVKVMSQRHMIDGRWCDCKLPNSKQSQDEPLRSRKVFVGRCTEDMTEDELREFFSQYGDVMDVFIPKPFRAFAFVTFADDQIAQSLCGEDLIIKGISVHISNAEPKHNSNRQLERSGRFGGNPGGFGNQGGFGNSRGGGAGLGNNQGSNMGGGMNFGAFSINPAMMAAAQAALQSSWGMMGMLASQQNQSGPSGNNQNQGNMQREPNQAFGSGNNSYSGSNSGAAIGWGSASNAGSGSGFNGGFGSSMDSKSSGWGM

Molecular target: TDP-43-MBP (full-length wild-type TDP-43) (UniProt Q13148)
Assay: EMSA
Conditions: Kd,app only in figure, 5' biotin on 18-mer strand, EMSA: 1 nM RNA, 50 mM Tris-HCl pH 7.5, 100 mM KCl, 2 mM MgCl2, 100 mM beta-mercaptoethanol, 0.1 mg/ml BSA, 30 min, room temperature, TDP-43 0-4, recombinant protein, residues 1-414, protein details: MBP, Ni-NTA purified, label: 5' Cy3 on strand 1, 3' Cy5 on 18-mer

| Sequence | binding result (minor reduction vs Intron Ref) | binding result (lower affinity than Repeat Ref) |
| --- | --- | --- |
| AAUGGAUGGGUGGAUAAAUUGAUGGGUGGAUGGAUGCCUCGCUGCCGUCGCCA / UGGCGACGGCAGCGAGGC [Intron Risk (G), rs12608932] | binds more weakly |  |
| UGGAUGGAUGGAUGGAUGGAUGGAUGGAUGGAUGGAUGGCCUCGCUGCCGUCGCCA / UGGCGACGGCAGCGAGGC [Repeat Risk ((GATG)9), rs56041637] |  | binds more weakly |

The comparison behind a weaker result is the experiment's own reference, which may not be listed here.
